According to US8057792B2, “Use of an antibody that blocks TNF-alpha activity for treating a nerve disorder mediated by nucleus pulposus” (Sciaticon AB, priority 1998, dated 2011):
At least one compound was matched to its structure with a doubt left.

What was measured:
[1] = tested on: nucleus pulposus-induced nerve root injury; conditions: previous publications; cited from earlier work
[2] = tested on: pigs with autologous nucleus pulposus applied to the sacrococcygeal cauda equina; assay: Series-2: nerve root conduction velocity 3 days after autologous nucleus pulposus application; type: in vivo, pig; conditions: compared to no treatment
[3] = tested on: pigs with autologous nucleus pulposus applied to the sacrococcygeal cauda equina; assay: Example 6: nerve conduction velocity 3 days after application of nucleus pulposus mixed with inhibitors; type: in vivo, pig; conditions: mixed with NP
Description: Fourteen pigs, (body weight 25-30 kg) received an intramuscular injection of 20 mg/kg body weight of KETALAR® (ketamine 50 mg/ml, Parke-Davis, Morris Plains, N.J.) and an intravenous injection of 4 mg/kg body weight of HYPNODIL® (methomidate chloride 50 mg/ml, AB Leo, Helsingborg, Sweden) and 0.1 mg/kg body weight of STRESNIL® (azaperon 2 mg/ml, Janssen Pharmaceutica, Beerse, Belgium). Anesthesia was maintained by additional intravenous injections of 2 mg/kg body weight of HYPNODIL® and 0.05 mg/kg body weight of STRESNIL®. The pigs also received an intravenous injection of 0.1 mg/kg of STESOLID NOVUM® (Diazepam, Dumex, Helsingborg) after surgery.
Nucleus pulposus was harvested from the 5th lumbar disc through a retroperitoneal approach. […]
Three days after the application, the pigs were reanaesthetized by an intramuscular injection of 20 mg/kg body weight of KETALAR® and an intravenous injection of 35 mg/kg body weight of PENTOTHAL® (Thiopental sodium, Abbott lab, Chicago, Ill.). […] Local tissue temperature was continuously monitored and maintained at 37.538.0. degree. […]
The person performing the neurophysiologic analyzes was unaware of the experimental protocol for the individual animal, and after finishing the complete study the data were arranged in the three experimental groups and statistical differences between the groups were assessed by Student's t-test. […]

SMILES	Block of nucleus pulposus-related effects [1]	Effect on nucleus pulposus-induced reduction in nerve conduction velocity [2]	Effect on nucleus pulposus induced reduction in nerve conduction velocity [3]
C[C@H]1C[C@@H]2[C@H]([C@@H](O)C[C@@]3(C)[C@H]2CC[C@]3(O)C(=O)CO)[C@@]2(C)C=CC(=O)C=C12 [methylprednisolone]	blocked efficiently	–	–
C[C@H]1c2cccc(O)c2C(=O)C2=C(O)[C@]3(O)C(=O)C(C(N)=O)=C(O)[C@@H](N(C)C)[C@@H]3[C@@H](O)[C@@H]21 [Doxycycline, doxycycline]	–	completely blocked this reduction	reduced the effects of the nucleus pulposus
